Measured values reported in US9499551B2, “Substituted pyrrolo[2,3-b]pyridines for treating cancer or inflammatory diseases” (Confluence Life Sciences, Inc., priority 2014, dated 2016).
The match of structure and compound is tentative.

Sequences of proteins named here, by UniProt entry; tags and fusion partners are left off. A line that says so, or that is headed by a name, gives the form on record, which may keep a tag or linker. Residues count along the entry.
UniProt O43318, 1-303 with tags or gaps limits assumed: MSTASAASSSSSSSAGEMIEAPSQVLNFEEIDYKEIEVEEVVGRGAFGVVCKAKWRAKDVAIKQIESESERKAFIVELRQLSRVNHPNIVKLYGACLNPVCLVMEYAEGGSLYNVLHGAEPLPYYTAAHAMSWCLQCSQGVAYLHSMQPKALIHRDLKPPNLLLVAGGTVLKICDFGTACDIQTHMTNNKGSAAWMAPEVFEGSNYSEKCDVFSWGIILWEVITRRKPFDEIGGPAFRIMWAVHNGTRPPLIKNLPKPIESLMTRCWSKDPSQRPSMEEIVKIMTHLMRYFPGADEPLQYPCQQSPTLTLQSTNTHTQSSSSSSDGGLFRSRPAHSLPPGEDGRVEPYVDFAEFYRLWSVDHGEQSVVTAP

Legend:
TAK1-TAB1 = TAK1-TAB1 (Homo sapiens, UniProt O43318); assay: TAK1-TAB1 binding inhibitory potency (LanthaScreen competitive binding assay, kinase tracer-236); details: read-out: TAK1-Tab (2 h PI) Inhibition IC50 uM; 2 h PI (pre-incubation); 10 nM TAK1-TAB1, 100 nM kinase tracer-236
Excerpt: TAK1-TAB1 Binding Inhibitory Potency:
The ability of candidate compounds to interact with TAK1-TAB1 is quantitated by a competitive binding assay using the LanthaScreen technology developed by Life Technologies. This assay is based on the binding of a proprietary, Alexa Fluor® 647-labeled, ATP-competitive kinase inhibitor (kinase tracer-236) to the TAK1-TAB1 construct in presence of a europium-conjugated antibody, resulting in a FRET (fluorescence resonance energy transfer) signal. Displacement of the kinase tracer by compound results in a lower emission ratio upon excitation of the europium chelate. Candidate compounds are designed as potential irreversible inhibitors of TAK1-TAB1, capable of ligating to an active site cysteine residue. The time dependent nature of irreversible inhibition is investigated by performing the binding assay with and without a pre-incubation of compound and TAK1-TAB1.
The inhibitory potency of candidate compounds is measured in 20 mM HEPES pH 7.5, 10 mM MgCl2, 0.01% BSA, 0.0005% Tween-20, and 2% DMSO in the presence of 10 nM TAK1-TAB1, 2 nM Eu-anti-his antibody, and 100 nM kinase tracer-236 using a 384-well plate format. Background signal is defined in the absence of TAK1-TAB1 and uninhibited signal is defined in the presence of vehicle (2% DMSO) alone. Compounds were evaluated in an 11 point dose-response ranging from 20 μM to 0.34 nM. The binding assays are performed under two conditions to evaluate time dependence of inhibition. For the pre-incubation assay, TAK1-TAB1 and Eu-anti-his antibody are preincubated with compound or vehicle for two hours prior to the addition of kinase tracer. The non-preincubated assay is run in which TAK1-TAB1 and Eu-anti-his antibody are added to a mixture of compound and kinase tracer. IC50 values of compounds are determined using a 4 parameter logistical fit of emission ratio as a function of the concentration of compound. […]

[1] = tested on: IL-6 Production in Human Peripheral Blood Mononuclear Cells (PBMC); assay: LPS stimulated IL-6 production in PBMC cells; details: read-out: IL-6 Production Inhibition IC50 uM
Procedure: LPS Stimulated IL-6 Production in PBMC Cells:
Lipopolysaccharide (LPS) stimulated IL-6 Production in Human Peripheral Blood Mononuclear Cells (PBMC): The cellular efficacy of compound candidates is determined using peripheral blood mononuclear cells purified from human whole blood, based upon the methods of Burnette et al. (2009) Pharmacology, 84:42-60. PBMC produce a number of cytokines (IL6, IL8, IL1β and TNFα) in response to stimulation with LPS. To induce the production of inflammatory mediators, PBMC are plated at a final concentration of 2×10^5 cells/well in a 96 well flat bottom plate in DMEM medium supplemented with 10% fetal bovine serum, 100 units/ml penicillin and 100 μg/ml streptomycin (Gibco BRL Life Technologies). Cells are treated with or without inhibitors for 1-3 hrs then stimulated with 100 ng/ml LPS (serotype 011:B4, Sigma) for an additional 3 hrs at 37° C. with 5% CO2. The supernatants are removed and stored at −20° C. until they are to be assayed. The levels of inflammatory mediators are determined using commercial MSD cytokine kits (Meso Scale Discovery) as per the manufacturer's instructions. Standard curves are based on 7 steps of 4× serial dilutions, with a wide dynamic range of 10000 pg/ml to 2.4 pg/ml, and a blank. Lower limit of detection (LLOD) is calculated at the commonly used 3× the standard deviation of the blank.

SMILES	IC50 (TAK1-TAB1) [µM]	IC50 [1] [µM]
CC(=O)c1ccc(-c2cnc3[nH]cc(/C=C/C(N)=O)c3n2)cn1	< 1	< 1
C/C=C/C(=O)c1c[nH]c2ncc(-c3ccccc3)cc12	> 1	
C/C=C(\C)C(=O)c1c[nH]c2ncc(-c3ccccc3)cc12	> 1	
NC(=O)/C=C/c1c[nH]c2ncc(-c3ccc(C(=O)c4ccccc4)cc3)cc12	< 1	
CC(C)=CC(=O)c1c[nH]c2ncc(-c3ccccc3)cc12	> 1	
NC(=O)/C=C/c1c[nH]c2ncc(-c3ccn(-c4ccccc4)n3)cc12	< 1	< 1
